According to patent US20260263646A1:
These are yes or no findings as the source states them, for the method shown. Some binding calls cover weakened binding; strength is not graded here.

The chains behind the UniProt entries cited, without tags or fusion partners.
UniProt Q04609: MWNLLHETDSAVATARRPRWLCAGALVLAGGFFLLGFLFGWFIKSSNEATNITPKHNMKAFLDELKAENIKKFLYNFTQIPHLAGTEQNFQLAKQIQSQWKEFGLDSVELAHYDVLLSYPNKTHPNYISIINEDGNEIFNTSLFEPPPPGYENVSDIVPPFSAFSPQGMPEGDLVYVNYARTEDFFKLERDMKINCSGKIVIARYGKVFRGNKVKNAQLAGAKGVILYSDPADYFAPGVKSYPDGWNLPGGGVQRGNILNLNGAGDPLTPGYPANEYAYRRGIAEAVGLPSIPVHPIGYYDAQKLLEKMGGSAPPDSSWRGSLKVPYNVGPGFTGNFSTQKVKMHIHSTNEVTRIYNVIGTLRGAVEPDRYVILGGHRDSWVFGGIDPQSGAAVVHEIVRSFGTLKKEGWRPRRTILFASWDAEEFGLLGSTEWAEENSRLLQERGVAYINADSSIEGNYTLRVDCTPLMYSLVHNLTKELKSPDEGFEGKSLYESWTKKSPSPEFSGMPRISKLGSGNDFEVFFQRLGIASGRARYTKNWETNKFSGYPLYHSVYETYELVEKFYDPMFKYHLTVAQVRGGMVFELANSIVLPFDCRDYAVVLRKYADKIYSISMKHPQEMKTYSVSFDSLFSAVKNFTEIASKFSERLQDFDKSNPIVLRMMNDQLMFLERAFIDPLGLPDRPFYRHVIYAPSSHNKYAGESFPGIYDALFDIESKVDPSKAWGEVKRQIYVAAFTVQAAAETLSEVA

Target: PSMA on LNCaP cells (human) (UniProt Q04609)
Experiment: flow cytometry

binding: binds
B1: C2-54TYR (VHH)
VHH: EVQLVESGGGLVQPGGSLTLSCAASRFMISEYSMHWVRQAPGKGLEWVSTINPYGTTDYAESVKGRFTISRDNAKNTLYLQMNSLKPEDTAVYYCDGYGYRGQGTQVTVSS
